{"source": "paper PMC4698670", "target": "T1, fortilin tagged with the haemagglutinin (HA)-epitope at its C-terminal end (not stated (human or mouse cDNA cloned)) (UniProt P13693)", "T1 sequence": "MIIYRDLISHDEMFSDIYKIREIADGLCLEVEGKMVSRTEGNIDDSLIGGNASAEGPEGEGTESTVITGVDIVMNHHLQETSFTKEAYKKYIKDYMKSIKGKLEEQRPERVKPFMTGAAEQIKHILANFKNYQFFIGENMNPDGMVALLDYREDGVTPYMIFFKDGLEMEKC", "test": "affinity purification with mass spectrometry; 10 mg cleared lysate of U2OS_(Fortilin-HA) or U2OS_(Empty-HA) on anti-HA agarose beads overnight at 4 °C; lysis 20 mM HEPES pH 7.4, 35 mM NaCl, 0.001% NP-40; washes with 150 mM NaCl, 0.01% NP-40; SDS-PAGE, SYPRO Ruby, bands excised, MALDI-TOF/TOF", "note": "No constants are given. Whether binding was seen depends on the method and setting. Binding seen in cells or lysates may run through a third protein. A yes stands for co-enrichment or nearness to the bait. Other partners may have been found. Sequences can lack the tags named with a protein.", "data": [{"binder": "peroxiredoxin-1 (PRX1), endogenous in U2OS cells (protein, UniProt Q06830 1-199) MSSGNAKIGHPAPNFKATAVMPDGQFKDISLSDYKGKYVVFFFYPLDFTFVCPTEIIAFSDRAEEFKKLNCQVIGASVDSHFCHLAWVNTPKKQGGLGPMNIPLVSDPKRTIAQDYGVLKADEGISFRGLFIIDDKGILRQITVNDLPVGRSVDETLRLVQAFQFTDKHGEVCPAGWKPGSDTIKPDVQKSKEYFSKQK", "values": [{"measurement": "binding", "result": "binds"}]}]}
